Results reported in patent US7812022B2 (GlaxoSmithKline LLC, priority 2004, dated 2010).
For at least one compound, name, drawing or mass did not settle the structure. Some compounds share one wording; it may come from a single statement.

Molecular target: T1, ErbB2 or EGFR
T1 construct: enzymes purified from a baculovirus expression system; Reagent production was conducted essentially as described in Brignola, P. S., et al, (2002) J. Biol. Chem. 277(2): 1576-1585
Experiment: ErbB family substrate phosphorylation enzyme assay (HTRF), Method A or Method B
Type: biochemical
Conditions: Method A: substrate mix added first, reaction started with enzyme mix
Procedure: Compounds of the present invention were tested for EGFR, ErbB-2, and ErbB-4 protein tyrosine kinase inhibitory activity in substrate phosphorylation assays using enzymes purified from a baculovirus expression system. Reagent production was conducted essentially as described in Brignola, P. S., et al, (2002) J. Biol. Chem. 277(2): 1576-1585.
The method measures the ability of the isolated enzyme to catalyse the transfer of the gamma-phosphate from ATP onto the tyrosine residue of a biotinylated synthetic peptide referenced “Peptide C” in Brignola, P. S., et al, (2002) J. Biol. Chem. 277(2):1576-1585. The extent of tyrosine phosphorylation was measured using an anti-phosphotyrosine antibody, and quantified by homogenous time-resolved fluorescence (HTRF).
Reactions were performed in black 384-well polystyrene flat-bottom plates in a final volume of 20 ul. Assays were performed by adding 10 μl of each of the following solutions, substrate Mix and enzyme mix: The Substrate mix contained 100 mM 3-[N-morpholino]propanesulfonic acid (MOPS) (pH 7.5), 2 mM MnCl2, 20 μM ATP, 0.01% Tween-20, 0.1 mg/mL (BSA), 0.8 uM peptide substrate, and 1 mM dithiothreitol. The enzyme mix contained 100 mM MOPS (pH7.5); 0.01% Tween-20; 0.1 mg/mL BSA, and either 0.8 nM EGFR, 10 nM ErbB2, or 1 nM ErbB4
During the course of these studies, two separate methods have been used to measure the potency of compounds. In Method A, the substrate mix was added to the compound plates first, then the reaction was started by adding the enzyme mix. In Method B, the enzyme mix was added to the compound plates and the plates were incubated at 20° C. for 1 hour. The reactions were then started by adding the substrate mix.
After initiating the reaction with either method describe above, the reactions were allowed to proceed for 90 minutes at 20° C. The reactions were then terminated by the addition of 20 μl 100 mM EDTA to each well. 40 μl/well of HTRF detection mix were added to the assay plates. The final concentrations of the detection reagents were: 100 mM HEPES (pH7.5), 0.1 mg/mL BSA, 15 nM streptavidin-labeled allophycocyanin (PerkinElmer), and 1 nM europium-labeled anti-phosphotyrosine antibody (PerkinElmer). Assay plates were left unsealed and were counted in a Wallac Multilabel Counter 1420 (PerkinElmer).
Compounds under analysis were dissolved in Me2SO to 1.0 mM and serially diluted 1 to 3 with Me2SO through twelve dilutions. 1 μl of each concentration was transferred to the corresponding well of an assay plate. This creates a final compound concentration range from 0.00027 to 47.6 μM.
The data for dose responses were plotted as % Inhibition calculated with the data reduction formula 100*(1−(U1−C2)/(C1−C2)) versus concentration of compound where U is the unknown value, C1 is the average control value obtained for 4.76% DMSO, and C2 is the average control value obtained for 0.035 M EDTA. Data were fitted with a curve described by: y=((Vmax*x)/(K+x))+Y^2 where Vmax is the upper asymptote, Y2 is the Y intercept, and K is the IC50. The results for each compound were recorded as pIC50s, calculated as follows: pIC50=−Log 10(K)

Compound | Activity (Method): pIC50 class against ErbB2 or EGFR
Cc1ccc2c(-c3ccnc(Nc4cccc(F)c4)n3)c(-c3cccc(NC(=O)c4cc(F)ccc4F)c3)nn2c1 [Example 40, 2,5-Difluoro-N-[3-(3-{2-[(3-fluorophenyl)amino]-4-pyrimidinyl}-6-methylpyrazolo[1,5-a]pyridin-2-yl)phenyl]benzamide] | +++ (A) (at least one pIC50 measurement of greater than 7 against either ErbB2 or EGFR)
O=C(Nc1cccc(-c2nn3ccccc3c2-c2ccnc(Nc3ccc(-c4cc[nH]n4)cc3)n2)c1)c1c(F)cccc1F [Example 101, 2,6-Difluoro-N-{3-[3-(2-{[4-(1H-pyrazol-3-yl)phenyl]amino}-4-pyrimidinyl)pyrazolo[1,5-a]pyridin-2-yl]phenyl}benzamide] | +++ (A) (at least one pIC50 measurement of greater than 7 against either ErbB2 or EGFR)
Cc1nc2ccc(Nc3nccc(-c4c(-c5cccc(NC(=O)c6c(F)cccc6F)c5)nn5ccccc45)n3)cc2nc1C [Example 97, N-[3-(3-{2-[(2,3-Dimethyl-6-quinoxalinyl)amino]-4-pyrimidinyl}pyrazolo[1,5-a]pyridin-2-yl)phenyl]-2,6-difluorobenzamide] | +++ (A) (at least one pIC50 measurement of greater than 7 against either ErbB2 or EGFR)
O=C(Cc1ccccc1)c1ccc(Nc2nccc(-c3c(-c4cccc(NC(=O)c5c(F)cccc5F)c4)nn4ccccc34)n2)cc1 [Example 102, 2,6-Difluoro-N-{3-[3-(2-{[4-(phenylacetyl)phenyl]-amino}-4-pyrimidinyl)pyrazolo[1,5-a]pyridin-2-yl]-phenyl}benzamide] | +++ (A) (at least one pIC50 measurement of greater than 7 against either ErbB2 or EGFR)

Same assay, conditions: Method B: enzyme mix pre-incubated with compound 1 hour at 20° C., started with substrate mix

Compound | Activity (Method): pIC50 class against ErbB2 or EGFR
NC(=O)c1ccc(Nc2nccc(-c3c(-c4cccc(NC(=O)c5c(F)cccc5F)c4)nn4ccccc34)n2)cc1 [Example 104, N-{3-[3-(2-{[4-(Aminocarbonyl)phenyl]amino}-4-pyrimidinyl)pyrazolo[1,5-a]pyridin-2-yl]phenyl}-2,6-difluorobenzamide-ethane (1:1)] | +++ (B) (at least one pIC50 measurement of greater than 7 against either ErbB2 or EGFR)
O=C(Nc1cccc(-c2nn3ccccc3c2-c2ccnc(Nc3cccc(F)c3)n2)c1)c1ccccn1 [Example 22, Pyridine-2-carboxylic acid (3-{3-[2-(3-fluoro-phenylamino)-pyrimidin-4-yl]-pyrazolo[1,5-a]pyridin-2-yl}-phenyl)-amide] | +++ (B) (at least one pIC50 measurement of greater than 7 against either ErbB2 or EGFR)
CN(C)C1Cc2ccc(Nc3nccc(-c4c(-c5cccc(NC(=O)c6c(F)cccc6F)c5)nn5ccccc45)n3)cc2C1 (stereo not shown) [Example 176, N-{3-[3-(2-{[2-(Dimethylamino)-2,3-dihydro-1H-inden-5-yl]amino}-4-pyrimidinyl)pyrazolo[1,5-a]pyridin-2-yl]phenyl}-2,6-difluorobenzamide] | +++ (B) (at least one pIC50 measurement of greater than 7 against either ErbB2 or EGFR)
